PubChem BioAssay AID1117269 – University of Michigan, 2014

Aim: 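Kinases whose silencing alters a TGF-beta responsive luciferase reporter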 (primary screen)
Cells: human A549 lung cancer and 1833 breast cancer (MDA-MB-231-derived) cell lines carrying a stable BTR luciferase reporter
Reagents: siRNA pool against human genes
Duration: 72 h after transfection, then 1 h TGF-beta before the read
Conditions: TGF-beta 10 ng/mL added one hour before luciferin and read-out
Measured: 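BTR reporter bioluminescence as fold change relative to non-targeting siRNA, averaging triplicates per line; knockdown for 72 h, then TGF-beta at 10 ng/mL 1 h prior to reading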
Reading the numbers: fold over scrambled siRNA, A549 and fold over scrambled siRNA, 1833: higher = more reporter light, weaker TGF-beta receptor signalling
Call rule: 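Hit in either line counts as active; per-line hits lie above an upper limit from quartiles of averaged log fold values, in plate and screen-wide analyses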
Meaning of the calls: active = hit in at least one line; inactive = hit in neither line
The deposit covers 714 reagents; shown is a random part of them. Of all reagents, 49 (6.9%) were called active. 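Active means a hit in at least one line; per-line hit columns show which; some siRNA pools appear more than once.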 No sequences are given here. Not given: the amount of reagent.

Target gene	fold over scrambled siRNA, A549	fold over scrambled siRNA, 1833	hit in A549	hit in 1833	Outcome
MAPK7	3.24	6.48	not a hit in A549	not a hit in 1833	inactive
PRKD1	1.62	1.76	not a hit in A549	not a hit in 1833	inactive
CERT1	1.19	2.12	not a hit in A549	not a hit in 1833	inactive
STYK1	1.15	1.75	not a hit in A549	not a hit in 1833	inactive
AURKA	0.433	3.33	not a hit in A549	not a hit in 1833	inactive
NEK6	5.46	13.9	hit in A549	hit in 1833	active
STKLD1	0.952	1.43	not a hit in A549	not a hit in 1833	inactive
WNK4	1.69	1.81	not a hit in A549	not a hit in 1833	inactive
MAPK8	1.56	1.87	not a hit in A549	not a hit in 1833	inactive
CDK13	2.1	10.3	not a hit in A549	hit in 1833	
CDC42BPA	2.19	1.33	not a hit in A549	not a hit in 1833	inactive
TAOK2	3.57	5.82	not a hit in A549	not a hit in 1833	inactive
PGK1	1.9	5.24	not a hit in A549	not a hit in 1833	inactive
LMTK2	1.5	13.1	not a hit in A549	hit in 1833	
PFKFB4	2.14	5.27	not a hit in A549	not a hit in 1833	inactive
DSTYK	1.33	1.73	not a hit in A549	not a hit in 1833	inactive
JAK3	1.87	1.1	not a hit in A549	not a hit in 1833	inactive
PHKG2	3.57	6.76	not a hit in A549	not a hit in 1833	inactive
TRIO	1.38	2.6	not a hit in A549	not a hit in 1833	inactive
CLK2	0.875	1.37	not a hit in A549	not a hit in 1833	inactive
DUSP21	2.81	3.1	not a hit in A549	not a hit in 1833	inactive
IRAK3	0.905	1.46	not a hit in A549	not a hit in 1833	inactive
CDK9	2.29	5.48	not a hit in A549	not a hit in 1833	inactive
NME1	2.02	3.19	not a hit in A549	not a hit in 1833	inactive
AKT3	0.377	2	not a hit in A549	not a hit in 1833	inactive
PIK3R3	1.58	3.4	not a hit in A549	not a hit in 1833	inactive
ALK	1.76	11.9	not a hit in A549	hit in 1833	
CSNK1A1	5.74	2.63	hit in A549	not a hit in 1833	active
SRP72	1.89	6.79	not a hit in A549	not a hit in 1833	inactive
FLT3	1.11	1.76	not a hit in A549	not a hit in 1833	inactive
NME5	6.06	3.93	hit in A549	not a hit in 1833	active
LIMK1	3	5.66	not a hit in A549	not a hit in 1833	inactive
DGKI	2.81	5.49	not a hit in A549	not a hit in 1833	inactive
PHKB	2.42	2.6	not a hit in A549	not a hit in 1833	inactive
CKMT2	1.46	4.8	not a hit in A549	not a hit in 1833	inactive
KIT	2.11	1.4	not a hit in A549	not a hit in 1833	inactive
LYN	2.48	3.07	not a hit in A549	not a hit in 1833	inactive
FASTK	3.75	22.6	not a hit in A549	hit in 1833	
DCK	1.26	7.94	not a hit in A549	not a hit in 1833	inactive
PRKAB1	1.48	0.857	not a hit in A549	not a hit in 1833	inactive
NIM1K	1.8	2.93	not a hit in A549	not a hit in 1833	inactive
PXK	1.69	2.22	not a hit in A549	not a hit in 1833	inactive
HIPK2	2.34	9.04	not a hit in A549	not a hit in 1833	inactive
EGFR	2.86	2.89	not a hit in A549	not a hit in 1833	inactive
CHKB	2.67	6.14	not a hit in A549	not a hit in 1833	inactive
RELA	1.75	1.62	not a hit in A549	not a hit in 1833	inactive
STK10	3.25	4.19	not a hit in A549	not a hit in 1833	inactive
PRKAA2	4.43	7.19	not a hit in A549	not a hit in 1833	inactive
BMPR2	8.06	11.7	hit in A549	hit in 1833	active
PRKCB	1.14	4.67	not a hit in A549	not a hit in 1833	inactive
ALPK1	1.07	4.3	not a hit in A549	not a hit in 1833	inactive
CDK5R2	1.57	2.6	not a hit in A549	not a hit in 1833	inactive
HK3	2.82	6.8	not a hit in A549	not a hit in 1833	inactive
AKT2	1.64	2.95	not a hit in A549	not a hit in 1833	inactive
DYRK3	1.92	4.49	not a hit in A549	not a hit in 1833	inactive
FXN	2.49	31.3	not a hit in A549	hit in 1833	
FGFR3	1.21	0.933	not a hit in A549	not a hit in 1833	inactive

Records listed so far whose target name starts with F or f (4):
Target gene	fold over scrambled siRNA, A549	fold over scrambled siRNA, 1833	hit in A549	hit in 1833	Outcome
FLT3	1.11	1.76	not a hit in A549	not a hit in 1833	inactive
FASTK	3.75	22.6	not a hit in A549	hit in 1833	
FXN	2.49	31.3	not a hit in A549	hit in 1833	
FGFR3	1.21	0.933	not a hit in A549	not a hit in 1833	inactive
